Assay results reported in publication PMC12041575.
These are yes or no findings as the source states them, for the method shown. In cells and extracts the contact can be indirect. Some results given as binding are weak or reduced against the parent protein; the word gives no strength.

Sequences of proteins named here, by UniProt entry; tags and fusion partners are left off.
UniProt Q9NRC8: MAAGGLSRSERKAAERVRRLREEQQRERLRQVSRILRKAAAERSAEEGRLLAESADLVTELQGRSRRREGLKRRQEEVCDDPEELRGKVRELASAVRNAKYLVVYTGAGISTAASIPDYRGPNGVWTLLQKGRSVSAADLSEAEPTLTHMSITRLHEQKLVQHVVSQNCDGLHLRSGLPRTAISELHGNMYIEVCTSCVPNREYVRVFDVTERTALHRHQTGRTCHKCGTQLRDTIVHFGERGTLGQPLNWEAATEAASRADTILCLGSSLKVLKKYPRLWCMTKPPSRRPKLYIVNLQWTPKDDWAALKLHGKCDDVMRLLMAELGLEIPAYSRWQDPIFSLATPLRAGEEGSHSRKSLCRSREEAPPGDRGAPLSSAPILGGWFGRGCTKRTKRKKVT

Target: T1, DExD-box helicase 21 (DDX21) (human (endogenous in HCT116)) (UniProt Q9NR30)
T1 sequence: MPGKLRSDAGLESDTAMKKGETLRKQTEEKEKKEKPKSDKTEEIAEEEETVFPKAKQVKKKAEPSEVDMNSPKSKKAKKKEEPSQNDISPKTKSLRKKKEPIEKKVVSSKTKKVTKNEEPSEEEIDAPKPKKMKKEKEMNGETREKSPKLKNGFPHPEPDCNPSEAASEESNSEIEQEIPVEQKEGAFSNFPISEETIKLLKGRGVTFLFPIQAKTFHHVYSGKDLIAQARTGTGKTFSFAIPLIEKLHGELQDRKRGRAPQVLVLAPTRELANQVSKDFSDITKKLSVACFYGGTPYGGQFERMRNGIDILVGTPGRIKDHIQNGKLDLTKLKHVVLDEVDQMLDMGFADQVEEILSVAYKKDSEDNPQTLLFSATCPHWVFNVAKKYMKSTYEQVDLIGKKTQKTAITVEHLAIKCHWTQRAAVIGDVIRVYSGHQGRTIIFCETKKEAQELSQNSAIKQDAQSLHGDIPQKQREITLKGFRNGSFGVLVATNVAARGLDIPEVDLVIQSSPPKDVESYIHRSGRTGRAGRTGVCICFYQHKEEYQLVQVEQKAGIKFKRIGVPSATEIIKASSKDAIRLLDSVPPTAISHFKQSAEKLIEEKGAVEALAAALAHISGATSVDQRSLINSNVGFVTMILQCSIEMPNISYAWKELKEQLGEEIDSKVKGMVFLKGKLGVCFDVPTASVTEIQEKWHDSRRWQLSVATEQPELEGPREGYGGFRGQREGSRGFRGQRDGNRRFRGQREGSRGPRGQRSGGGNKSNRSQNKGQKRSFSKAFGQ
Experiment: co-IP; Co-IP and western blotting; cells and bait not given

sirtuin 7 (SIRT7) (from UniProt Q9NRC8 1-400)
binding: binds
